Experimental data: article PMC10850148
Residue numbers refer to the chain shown, from its start. Names may count otherwise. Results are given in words; binding and its absence hold for the method and conditions named.

Experiments:
[1] = biological target: T1, AtSPL5 ZnF domain Y78A (Arabidopsis thaliana) (UniProt Q9S758); experiment: condition: 660 μM ~ 700 μM titrated into 40 μM to 50 μM; ITC; MicroCal PEAQ-ITC, 16 °C, 20 mM Tris-HCl pH 7.5, 150 mM NaCl; 660-700 μM protein injected into 40-50 μM protein in the cell; SAP05 titrated to the transcription factor; one-site model; both purified
T1 sequence: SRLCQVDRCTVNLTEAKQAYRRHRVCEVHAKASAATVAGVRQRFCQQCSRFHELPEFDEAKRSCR

[2] = biological target: T2, AtSPL5 ZnF domain Y79A (Arabidopsis thaliana) (UniProt Q9S758); experiment: as above
T2 sequence: T1 sequence with A19Y, Y20A

[3] = biological target: T3, AtSPL5 ZnF domain R121A (Arabidopsis thaliana) (UniProt Q9S758); experiment: as above
T3 sequence: T1 sequence with A19Y, R62A

[4] = biological target: GST-tagged OY-M SAP05 (onion yellows phytoplasma (OY-M; Candidatus Phytoplasma asteris)); experiment: pull-down; about 200 μg purified GST-fused protein on GST beads, equal amount of target protein, 1 h, 4 °C; 20 mM Tris-HCl, 400 mM NaCl; glutathione elution, Coomassie staining; both purified

“OY-M SAP05 (residues 33-135) (domain or fragment)” was tested, and the binding [1] was “no binding”, the binding [2] was “no binding” and the binding [3] was “no binding”.

B1: AtSPL5 ZnF domain R121A (domain or fragment, UniProt Q9S758 60-124)
chain: T1 sequence with A19Y, R62A
With B1 the binding [4] was “no binding”.

B2: AtSPL5 ZnF domain Y78A (domain or fragment, UniProt Q9S758 60-124)
chain: T1 sequence
In the case of B2, the binding [4] is reported as “no binding”.

B3: AtSPL5 ZnF domain Y79A (domain or fragment, UniProt Q9S758 60-124)
chain: T1 sequence with A19Y, Y20A
In the case of B3, the binding [4] is reported as “no binding”.

B4: human RPN10 vWA domain 38HS39 > GA (domain or fragment, UniProt Q5VWC4 2-193)
chain: VLESTMVCVDNSEYMRNGDFLPTRLQAQQDAVNIVCGAKTRSNPENNVGLITLANDCEVLTTLTPDTGRILSKLHTVQPKGKITFCTGIRVAHLALKHRQGKNHKMRIIAFVGSPVEDNEKDLVKLAKRLKKEKVNVDIINFGEEEVNTEKLTAFVNTLNGKDGTGSHLVTVPPGPSLADALISSPILAGEG
B4 was tested, and the binding [4] was “no binding”.

B5: human RPN10 vWA domain 38HS39 > GA and T68L (domain or fragment, UniProt Q5VWC4 2-193)
chain: B4 chain with T67L
In the case of B5, the binding [4] is reported as “no binding”.
